Results as given in patent US10035790B2, “RORγ modulators” (BRISTOL-MYERS SQUIBB COMPANY, priority 2012, dated 2018).

The chains behind the UniProt entries cited, without tags or fusion partners. Residues count along the entry.
UniProt P51449, 262-507 limits assumed: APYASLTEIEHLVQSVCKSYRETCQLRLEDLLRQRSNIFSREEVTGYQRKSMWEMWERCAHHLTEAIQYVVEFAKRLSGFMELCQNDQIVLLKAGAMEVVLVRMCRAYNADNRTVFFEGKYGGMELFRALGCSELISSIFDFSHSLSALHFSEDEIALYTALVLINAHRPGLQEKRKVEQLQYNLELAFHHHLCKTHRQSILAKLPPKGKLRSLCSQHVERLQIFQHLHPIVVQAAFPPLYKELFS

Biological target: ligand binding domain of human RORγ (A262-S507) (Homo sapiens, UniProt P51449)
Assay: General RORγ SPA binding assay (competition with [3H]25-hydroxycholesterol)
Settings: inhibition of [3H]25-hydroxycholesterol binding

With `Cc1nc(C)c(-c2nnc(-c3cccc(OC(F)(F)F)c3)o2)c(C2CCN(C(=O)Cc3c(F)cccc3F)CC2)n1` the IC50 was 15.5 nM.
`Cc1nc(C)c(-c2nnc(-c3cccc(Cl)c3)o2)c(C2CCN(C(=O)Cc3c(F)cccc3F)CC2)n1` showed an IC50 of 18.9 nM.
`Cc1cc(-c2nnc(-c3c(C)nc(C)nc3C3CCN(C(=O)Cc4c(F)cccc4F)CC3)o2)nc(C(F)(F)F)n1` showed an IC50 of 6.9 nM.
`Cc1nc(C)c(-c2nnc(-c3ccccc3)o2)c(C2CCN(C(=O)Cc3c(F)cccc3F)CC2)n1` gave an IC50 of 161 nM.
For `Cc1nc(C)c(-c2nnc(-c3cccc(C(F)(F)F)c3)o2)c(C2CCN(C(=O)Cc3c(F)cccc3F)CC2)n1`, the IC50 was 19.4 nM.
In the case of `Cc1nc(C)c(-c2nnc(Cc3cccc(C(F)(F)F)c3)o2)c(C2CCN(C(=O)Cc3c(F)cccc3F)CC2)n1`, the IC50 is reported as 218 nM.
`Cc1cc(C)cc(-c2nnc(-c3c(C)nc(C)nc3C3CCN(C(=O)Cc4c(F)cccc4F)CC3)o2)c1` was tested, and the IC50 was 26.3 nM.
For `Cc1nc(C)c(-c2nnc(-c3ccnc(C(C)C)n3)o2)c(C2CCN(C(=O)Cc3c(F)cccc3F)CC2)n1`, the IC50 was 201 nM.
Compound `Cc1nc(C)c(-c2nnc(-c3ccccc3Cl)o2)c(C2CCN(C(=O)Cc3c(F)cccc3F)CC2)n1` has an IC50 of 102 nM.
In the case of `Cc1nc(C)c(-c2nnc(-c3ccnc(C(F)(F)F)c3)o2)c(C2CCN(C(=O)Cc3c(F)cccc3F)CC2)n1`, the IC50 is reported as 110 nM.

The match of structure and compound is tentative.
